Reference: publication doi:10.1101/2022.11.26.518021
These are yes or no findings as the source states them, for the method shown. Binding seen in cells or lysates may run through a third protein. Some entries that bind do so weakly or less than the wild type. Sequences can lack the tags named with a protein.

Chains of the proteins cited; added tags and fusions are not shown.
UniProt Q9LN63: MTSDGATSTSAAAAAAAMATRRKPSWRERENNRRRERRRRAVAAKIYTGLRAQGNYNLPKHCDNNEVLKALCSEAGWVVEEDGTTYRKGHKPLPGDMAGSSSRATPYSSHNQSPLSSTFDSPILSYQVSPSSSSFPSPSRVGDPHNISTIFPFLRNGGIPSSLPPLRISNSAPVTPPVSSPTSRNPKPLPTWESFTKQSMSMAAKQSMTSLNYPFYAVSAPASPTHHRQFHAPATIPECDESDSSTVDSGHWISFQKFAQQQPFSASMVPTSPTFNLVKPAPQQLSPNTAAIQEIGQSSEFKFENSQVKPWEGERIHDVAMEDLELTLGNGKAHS

T1: POLAR-GFP (35Spro:gPOLAR-GFP/Col-0, line #3.1) (Arabidopsis thaliana) (UniProt Q6NQ99)
T1 sequence: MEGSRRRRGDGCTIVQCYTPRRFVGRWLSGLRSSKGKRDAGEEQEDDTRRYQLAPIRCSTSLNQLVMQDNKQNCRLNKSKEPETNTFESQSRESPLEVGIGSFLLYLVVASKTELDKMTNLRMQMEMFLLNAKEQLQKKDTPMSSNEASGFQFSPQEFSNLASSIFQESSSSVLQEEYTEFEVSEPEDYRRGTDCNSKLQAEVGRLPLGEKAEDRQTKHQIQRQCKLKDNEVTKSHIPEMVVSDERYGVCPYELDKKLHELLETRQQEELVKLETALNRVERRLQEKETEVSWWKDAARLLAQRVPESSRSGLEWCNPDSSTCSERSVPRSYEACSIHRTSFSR

T2: PL1-GFP (35Spro:gPL1-GFP/Col-0, line #1.6) (Arabidopsis thaliana)
T2 sequence: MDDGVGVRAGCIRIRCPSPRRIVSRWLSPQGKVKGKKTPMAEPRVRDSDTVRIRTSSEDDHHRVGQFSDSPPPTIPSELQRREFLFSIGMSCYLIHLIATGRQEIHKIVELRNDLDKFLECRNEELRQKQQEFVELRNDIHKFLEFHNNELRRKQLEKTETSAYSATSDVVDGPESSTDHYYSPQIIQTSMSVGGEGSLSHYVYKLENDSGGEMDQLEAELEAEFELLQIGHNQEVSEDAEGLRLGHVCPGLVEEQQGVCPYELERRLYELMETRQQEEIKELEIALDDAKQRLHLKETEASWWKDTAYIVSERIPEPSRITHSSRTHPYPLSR

T3: PL1-GFP (35Spro:PL1-GFP), POLAR-LIKE1 (Arabidopsis thaliana)
T3 sequence: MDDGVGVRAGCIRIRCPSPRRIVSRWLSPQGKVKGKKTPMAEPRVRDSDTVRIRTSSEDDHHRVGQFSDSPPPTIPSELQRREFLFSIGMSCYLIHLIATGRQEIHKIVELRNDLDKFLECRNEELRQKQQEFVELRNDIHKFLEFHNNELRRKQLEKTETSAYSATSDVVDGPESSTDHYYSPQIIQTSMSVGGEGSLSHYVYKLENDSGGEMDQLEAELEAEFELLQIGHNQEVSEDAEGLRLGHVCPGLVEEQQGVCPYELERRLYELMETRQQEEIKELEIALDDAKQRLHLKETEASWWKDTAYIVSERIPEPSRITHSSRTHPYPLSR


Columns and labels:
Experiment in all cases: co-IP
[1] = target: T1, POLAR-GFP (35Spro:gPOLAR-GFP/Col-0, line #3.1) (Arabidopsis thaliana)
[2] = target: T2, PL1-GFP (35Spro:gPL1-GFP/Col-0, line #1.6) (Arabidopsis thaliana)
[3] = target: T3, PL1-GFP (35Spro:PL1-GFP), POLAR-LIKE1 (Arabidopsis thaliana)

binding [1] | binding [2] | binding [3] | Molecule
binds | binds |  | BRI1-EMS-SUPPRESSOR1 (BES1)/BZR2 (from UniProt Q9LN63 1-335)
 |  | binds | POLAR-mCherry (35Spro:POLAR-mCherry), POLAR LOCALIZATION DURING … DIVISION AND REDISTRIBUTION (protein, UniProt Q6NQ99 1-344) MEGSRRRRGDGCTIVQCYTPRRFVGRWLSGLRSSKGKRDAGEEQEDDTRRYQLAPIRCSTSLNQLVMQDNKQNCRLNKSKEPETNTFESQSRESPLEVGIGSFLLYLVVASKTELDKMTNLRMQMEMFLLNAKEQLQKKDTPMSSNEASGFQFSPQEFSNLASSIFQESSSSVLQEEYTEFEVSEPEDYRRGTDCNSKLQAEVGRLPLGEKAEDRQTKHQIQRQCKLKDNEVTKSHIPEMVVSDERYGVCPYELDKKLHELLETRQQEELVKLETALNRVERRLQEKETEVSWWKDAARLLAQRVPESSRSGLEWCNPDSSTCSERSVPRSYEACSIHRTSFSR
 |  | binds | mCherry-BASL (35Spro:mCherry-BASL), BREAKING OF … IN THE STOMATAL LINEAGE (protein, UniProt Q5BPF3 1-262) MASQWTIPKLVTWRVRDWASCFLACKIPLDGDEDGANNNGNTTNNNNLTFKRIKRKIKSTKKKRSERKLSLSPPGTRHHHLHLRSSSVSPTTSGSQHRRLSWPQPPVSEESGFIVFCFDREDGGFDVVKEGKQEKKETESSSEKSPRTVNRKLIYGDQGVGGTEKNNSPETKGTEQDQNDNTSCQGTKDVSSDVTERTKEEEDIDASDKSSGSSHSDEGRGSFAFPILGVEWMGSPAKMPESDDLSPKKQKPVALGFQCCRF
